The results in this text go back to patent publication US20070087959A1.

Amino acid sequences for entries named in this document (tags omitted). A change or cut given only in a name is not applied to a line headed by its entry.
UniProt P06756: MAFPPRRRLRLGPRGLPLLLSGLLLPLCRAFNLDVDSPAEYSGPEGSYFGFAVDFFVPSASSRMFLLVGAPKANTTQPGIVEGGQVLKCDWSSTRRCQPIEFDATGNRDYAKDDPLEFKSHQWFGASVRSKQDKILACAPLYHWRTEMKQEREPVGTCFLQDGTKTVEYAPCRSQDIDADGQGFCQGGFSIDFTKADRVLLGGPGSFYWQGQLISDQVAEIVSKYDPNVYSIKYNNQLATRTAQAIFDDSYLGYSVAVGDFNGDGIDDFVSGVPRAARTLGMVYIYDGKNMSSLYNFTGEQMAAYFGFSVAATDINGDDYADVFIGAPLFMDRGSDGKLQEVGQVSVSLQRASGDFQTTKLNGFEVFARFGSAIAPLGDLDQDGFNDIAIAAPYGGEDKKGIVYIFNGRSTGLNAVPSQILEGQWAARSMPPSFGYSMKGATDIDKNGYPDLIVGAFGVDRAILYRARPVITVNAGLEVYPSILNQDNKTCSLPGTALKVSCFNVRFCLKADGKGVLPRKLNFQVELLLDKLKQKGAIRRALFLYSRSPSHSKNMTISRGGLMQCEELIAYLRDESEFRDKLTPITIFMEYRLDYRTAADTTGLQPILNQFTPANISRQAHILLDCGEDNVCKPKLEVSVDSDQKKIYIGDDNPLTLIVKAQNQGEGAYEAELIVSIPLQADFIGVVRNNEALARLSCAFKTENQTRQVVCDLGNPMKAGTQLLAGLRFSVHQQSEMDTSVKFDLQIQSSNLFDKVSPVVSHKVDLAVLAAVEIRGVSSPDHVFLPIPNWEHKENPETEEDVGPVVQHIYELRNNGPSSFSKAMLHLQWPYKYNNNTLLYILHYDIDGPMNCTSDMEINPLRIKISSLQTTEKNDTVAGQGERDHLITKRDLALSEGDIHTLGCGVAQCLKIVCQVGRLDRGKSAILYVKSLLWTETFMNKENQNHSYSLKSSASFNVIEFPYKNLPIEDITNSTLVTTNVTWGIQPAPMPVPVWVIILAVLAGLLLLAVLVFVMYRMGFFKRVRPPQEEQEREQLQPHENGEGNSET
UniProt P05106: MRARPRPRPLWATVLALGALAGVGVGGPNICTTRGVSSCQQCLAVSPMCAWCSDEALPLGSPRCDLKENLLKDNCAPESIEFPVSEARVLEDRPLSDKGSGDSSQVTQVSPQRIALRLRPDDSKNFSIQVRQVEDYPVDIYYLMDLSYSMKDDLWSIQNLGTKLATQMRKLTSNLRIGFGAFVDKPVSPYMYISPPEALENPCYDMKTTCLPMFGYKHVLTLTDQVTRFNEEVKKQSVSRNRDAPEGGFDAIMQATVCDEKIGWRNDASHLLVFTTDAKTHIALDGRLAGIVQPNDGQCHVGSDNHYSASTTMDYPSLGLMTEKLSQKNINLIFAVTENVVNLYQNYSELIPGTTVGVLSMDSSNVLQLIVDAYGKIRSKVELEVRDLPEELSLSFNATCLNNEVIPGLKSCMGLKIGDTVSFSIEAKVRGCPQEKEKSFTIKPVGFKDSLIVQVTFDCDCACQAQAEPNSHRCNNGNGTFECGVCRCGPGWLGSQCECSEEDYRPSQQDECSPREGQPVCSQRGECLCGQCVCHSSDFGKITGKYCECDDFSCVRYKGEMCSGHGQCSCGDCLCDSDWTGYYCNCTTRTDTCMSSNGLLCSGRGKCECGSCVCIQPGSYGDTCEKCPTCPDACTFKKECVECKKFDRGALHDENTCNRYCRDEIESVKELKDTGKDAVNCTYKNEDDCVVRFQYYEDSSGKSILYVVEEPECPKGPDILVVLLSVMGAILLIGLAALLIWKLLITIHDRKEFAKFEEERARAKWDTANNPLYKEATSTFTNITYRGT

These are yes or no findings as the source states them, for the method shown. Some results given as binding are weak or reduced against the parent protein; the word gives no strength.

The experiment has as its target ανβ3 integrin on human adult mesenchymal stem cells (hMSC) (human) (UniProt P06756+P05106). Briefly: inferred from antibody blocking of rPP-induced Runx2 expression in hMSC (qPCR); no direct binding assay. On the technique in general: Real-time PCR tracks product formation cycle by cycle.

B1: recombinant Phosphophoryn (rPP) (ligand)
chain: GIETEGPNKGNKSIITKESGKLSGSKDSNGHQGVELDKRNSPKQGESDKPQGTAEKSAAHSNLGHSRIGSSSNSDGHDSYEFDDESMQGDDPKSSDESNGSDESDTNSESANESGSRGDASYTSDESSDDDNDSDSHAGEDDSSDDSSGDGDSDSNGDGDSESEDKDESDSSDHDNSSDSESKSDSSDSSDDSSDSSDSSDSSDSSDSSDSSDSSDSSDSSDSNSSSDSSDSSGSSDSSDSSDTCDSSDSSDSSDSSDSSDSSDSSDSSDSSDSSDSSDSSSSSDSSDSSSCSDSSDSSDSSDSSDSSDSSDSSSSDSSSSSNSSDSSDSSDSSSSSDSSDSSDSSDSSDSSGSSDSSDSSASSDSSSSSDSSDSSSSSDSSDSSDSSDSSDSSESSDSSNSSDSSDSSDSSDSSDSSDSSDSSDSSDSSNSSDSSDSSDSSDSSDSSNSSDSSDSSDSSDSSDSSDSSDSSDSSDSSDSSDSSDSSDSSDSSDSSDSSDSSDSSDSSDSSDSSDSSNSSDSSDSDSKDSSSDSSDGDSKSGNGNSDSNSDSNSDSDSDSEGSDSNHSTSDD
Take B1: the binding result is on record as “binds”.
